In PMC12350170, “Structural basis for the synergistic assembly of the snRNA export complex” (Nature Structural & Molecular Biology, 2025):
No constants are given. Whether binding was seen depends on the method and setting. In cells and extracts the contact can be indirect. Here binding means that the protein was enriched with, or labelled near, the bait; the list need not be complete.

Amino acid sequences for entries named in this document (tags omitted). A change or cut given only in a name is not applied to a line headed by its entry.
UniProt Q9JJT9: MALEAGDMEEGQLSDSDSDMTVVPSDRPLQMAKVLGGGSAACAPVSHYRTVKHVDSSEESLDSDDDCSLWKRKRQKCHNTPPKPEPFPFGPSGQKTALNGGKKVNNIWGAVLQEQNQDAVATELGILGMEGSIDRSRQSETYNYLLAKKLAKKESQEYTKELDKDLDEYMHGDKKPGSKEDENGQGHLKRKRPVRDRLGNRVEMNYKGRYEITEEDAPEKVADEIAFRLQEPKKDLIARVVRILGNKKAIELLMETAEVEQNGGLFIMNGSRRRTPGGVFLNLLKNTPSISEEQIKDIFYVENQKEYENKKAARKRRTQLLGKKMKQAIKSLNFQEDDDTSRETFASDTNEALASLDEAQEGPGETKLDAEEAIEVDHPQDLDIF

Columns and labels:
Experiment in all cases: proximity labelling; MYC-mTurbo-PHAX variants in HA-dTAG-PHAX mES cells; dTAG^V-1 4 h to deplete endogenous PHAX, 50 µM biotin 4 h; streptavidin beads, western blot of CBP20, CBP80, Ran, CRM1, ARS2
[1] = target: MYC-mTurbo-PHAX R137A (mouse) (mouse) (UniProt Q9JJT9)
[2] = target: MYC-mTurbo-PHAX R49E (mouse) (mouse) (UniProt Q9JJT9)
[3] = target: MYC-mTurbo-PHAX ST2A (mouse; S56A-S57A-S60A-S63A) (mouse) (UniProt Q9JJT9)
[4] = target: MYC-mTurbo-PHAX WT (mouse) (mouse) (UniProt Q9JJT9)
[5] = target: MYC-mTurbo-PHAX Y144E (mouse) (mouse) (UniProt Q9JJT9)

Measured: binding

B1: Endogenous mouse ARS2 (protein, UniProt Q99MR6 1-875)
chain: MGDSDDEYDRRRRDKFRRERSDYDRSRERDERRRGDDWNDREWDRGRERRSRGEYRDYDRNRRERFSPPRHELSPPQKRMRRDWDEHSSDPYHSGYDMPYAGGGGGPTYGPPQPWGHPDVHIMQHHVLPIQARLGSIAEIDLGVPPPIMKSFKEFLLSLDDSVDETEAVKRYNDYKLDFRRQQMQDFFLAHKDEEWFRSKYHPDEVGKRRQEARGALQNRLKVFLSLMESGWFDNLLLDIDKADAIVKMLDAAVIKMEGGTENDLRILEQEEEEEQAGKTGEASKKEEARAGPALGEGERKANDKDEKKEDGKQAENDSSNDDKTKKSEGDGDKEEKKEEAEKEAKKSKKRNRKQSGDDSFDEGSVSESESESEGGQAEEEKEEAEEALKEKEKPKEEEKEKPKDAAGLECKPRPLHKTCSLFMRNIAPNISRAEIISLCKRYPGFMRVALSEPQPERRFFRRGWVTFDRSVNIKEICWNLQNIRLRECELSPGVNRDLTRRVRNINGITQHKQIVRNDIKLAAKLIHTLDDRTQLWASEPGTPPVPTSLPSQNPILKNITDYLIEEVSAEEEELLGSSGGPPPEEPPKEGNPAEINVERDEKLIKVLDKLLLYLRIVHSLDYYNTCEYPNEDEMPNRCGIIHVRGPMPPNRISHGEVLEWQKTFEEKLTPLLSVRESLSEEEAQKMGRKDPEQEVEKFVTSNTQELGKDKWLCPLSGKKFKGPEFVRKHIFNKHAEKIEEVKKEVAFFNNFLTDAKRPALPEIKPAQPPGPAQILPPGLTPGLPYPHQTPQGLMPYGQPRPPILGYGAGAVRPAVPTGGPPYPHAPYGAGRGNYDAFRGQGGYPGKPRNRMVRGDPRAIVEYRDLDAPDDVDFF
binds: all assays above
